# Values from PubChem BioAssay AID652243 (Drosophila RNAi Screening Center, 2013).
# Test: 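Knock-downs that decrease or increase androgen receptor reporter signal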 (primary screen)
# Cell system: Drosophila S2R+ cells
# Reagents: long dsRNA against Drosophila genes
# Duration: 72 h (48 h, then 24 h hormone)
# Challenge: synthetic androgen R1881 at 10 nM for 24 h
# Detection: 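Firefly light from an androgen-responsive reporter and Renilla control light per well, raw and unnormalised, for each of two replicates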
# Scale: firefly reporter light: higher = more light from androgen-responsive reporter; Renilla control light: higher = more constitutive control signal (cell number, transfection)
# Hit rule: 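Across duplicate plates, a knock-down whose log firefly/Renilla ratio shifted a set fold down or up from the GFP/LacZ control mean was a hit; the downward cut appears as both 1.5 and 3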
# Calls: active = hit: reporter lowered or raised; inactive = no hit
# In all, the deposit lists about 24,000 reagents; below is an unselected part of those that have a named target and a result. Over the whole deposit, 246 (1%) got an active call. 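Plates not normalised; calls are printed but the firefly/Renilla ratio behind them is not deposited; fold cut for lowering reported inconsistently.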 Raw values vary from plate to plate and are shown uncorrected. Names joined by + are all predicted targets of the reagent. The record does not give: the amount of reagent.
Target gene,amplicon,"firefly reporter light, replicate 1","firefly reporter light, replicate 2","Renilla control light, replicate 1","Renilla control light, replicate 2",Call
Ubc84D,DRSC12610,1.12e5,1.55e5,2.05e6,2.12e6,inactive
Ubc84D,DRSC25384,7.56e5,5.63e5,1.99e6,7.77e5,inactive
mTerf5,DRSC16209,1.43e5,1.01e5,1.29e6,9.14e5,inactive
ND2 (retired record),DRSC21274,7.03e5,8.44e5,2.06e6,2.01e6,inactive
Rpn10,DRSC11876,2.22e5,1.99e5,1.41e6,1.33e6,inactive
galla-1,DRSC05987,84476,1.30e5,2.17e6,2.26e6,inactive
Aptx,DRSC15768,2.55e5,2.18e5,3.53e6,3.77e6,inactive
Aptx,DRSC28121,4.24e5,2.22e5,1.11e6,8.96e5,inactive
CG6179,DRSC19973,1.04e6,9.98e5,3.70e6,3.16e6,inactive
CG7568,DRSC16259,2.63e5,1.76e5,2.09e6,2.25e6,inactive
CG7568,DRSC28378,4.34e5,7.96e5,1.25e6,1.99e6,inactive
Cdc23,DRSC02708,8.19e5,1.10e6,1.25e6,2.11e6,inactive
MED28,DRSC15721,1.68e5,1.93e5,2.88e6,2.26e6,inactive
Ubc10,DRSC07568,77508,67912,1.07e6,1.07e6,inactive
Ubc10,DRSC23795,4.76e5,2.23e5,7.29e5,2.42e5,inactive
CG9106,DRSC20154,76892,72319,6.51e5,6.64e5,inactive
CG9106,DRSC24212,5.47e5,7.59e5,8.33e5,7.25e5,inactive
Pdss2,DRSC11625,66763,49541,4.65e5,3.62e5,inactive
Vajk3,DRSC01883,9.20e5,9.54e5,1.96e6,2.03e6,inactive
Vajk3,DRSC25405,5.86e5,7.29e5,8.94e5,1.21e6,inactive
RpL26,DRSC10726,1.62e5,2.12e5,1.27e6,2.10e6,inactive
NPF,DRSC17019,1.13e5,1.64e5,1.69e6,2.23e6,inactive
CG17666,DRSC10276,2.77e5,1.47e5,2.74e6,1.25e6,inactive
CG17666,DRSC26761,4.69e5,3.87e5,7.91e5,9.13e5,inactive
CG42675,DRSC12157,17872,23631,2.30e5,2.28e5,inactive
CG42675,DRSC21868,5.56e5,4.91e5,1.12e6,1.01e6,inactive
CG42675,DRSC24431,8.98e5,5.48e5,1.08e6,1.01e6,inactive
CG42675,DRSC26577,2.84e5,2.63e5,6.12e5,5.14e5,inactive
CG42675,DRSC37072,,,,,inactive
Noc2,DRSC03165,8.29e5,6.95e5,2.20e6,1.98e6,inactive
mio,DRSC00692,9.62e5,6.44e5,2.46e6,1.32e6,inactive
mio,DRSC22056,1.05e6,9.11e5,2.38e6,1.69e6,inactive

5 of these entries, set out differently.
| Target gene | amplicon | firefly reporter light, replicate 1 | firefly reporter light, replicate 2 | Renilla control light, replicate 1 | Renilla control light, replicate 2 | Call |
| --- | --- | --- | --- | --- | --- | --- |
| CG42675 | DRSC21868 | 5.56e5 | 4.91e5 | 1.12e6 | 1.01e6 | inactive |
| CG42675 | DRSC24431 | 8.98e5 | 5.48e5 | 1.08e6 | 1.01e6 | inactive |
| CG42675 | DRSC26577 | 2.84e5 | 2.63e5 | 6.12e5 | 5.14e5 | inactive |
| CG42675 | DRSC37072 | – | – | – | – | inactive |
| Noc2 | DRSC03165 | 8.29e5 | 6.95e5 | 2.20e6 | 1.98e6 | inactive |

The list goes on.
Target gene,amplicon,"firefly reporter light, replicate 1","firefly reporter light, replicate 2","Renilla control light, replicate 1","Renilla control light, replicate 2",Call
corolla,DRSC20102,87647,1.16e5,8.30e5,8.85e5,inactive
neur + asRNA:CR31429,DRSC17013,67313,43565,2.38e5,3.05e5,inactive
neur + asRNA:CR31429,DRSC38427,4.70e5,3.82e5,1.25e6,1.45e6,inactive
raw,DRSC03599,41716,52149,8.36e5,8.50e5,inactive
raw,DRSC03600,1.27e5,41523,6.48e5,5.47e5,inactive
dpr17,DRSC12885,77275,56129,20138,1.68e5,inactive
dpr17,DRSC14958,256,1804,,,inactive
LanA,DRSC11207,1.20e6,8.37e5,1.47e6,1.30e6,inactive
PIG-G,DRSC06823,1.06e6,4.36e5,1.61e6,1.02e6,inactive
CG14300,DRSC14779,2.90e5,2.26e5,3.50e6,3.30e6,inactive
Pfrx,DRSC18856,1.62e5,2.08e5,7.01e5,6.26e5,inactive
Pfrx,DRSC19315,6.73e5,6.71e5,1.09e6,8.08e5,active
Pfrx,DRSC28602,3.54e5,3.43e5,1.41e6,1.02e6,inactive
Ski6,DRSC02491,2.69e5,2.64e5,2.46e6,2.44e6,inactive
mip130,DRSC18575,4.20e5,1.98e5,4.65e6,2.69e6,inactive
mip130,DRSC26990,5.17e5,5.21e5,5.84e5,3.66e5,inactive
CG2116,DRSC18206,65258,34818,5.75e5,4.17e5,inactive
CG2116,DRSC24617,7.29e5,9.27e5,5.38e5,7.95e5,inactive
CG43902,DRSC17850,3.54e5,2.54e5,3.28e6,2.29e6,inactive
CG43902,DRSC17999,6.59e5,5.23e5,1.31e6,1.20e6,inactive
CG43902,DRSC25064,7.26e5,6.77e5,1.35e6,1.05e6,inactive
Pal1,DRSC06106,1.35e6,8.88e5,1.80e6,1.19e6,inactive
hec,DRSC19895,5.81e5,4.84e5,3.55e6,3.29e6,inactive
Tsp86D,DRSC15607,1.89e5,2.15e5,2.53e6,3.03e6,inactive
Obp50b + Obp50c,DRSC21818,4.93e5,4.01e5,2.77e6,3.32e6,inactive
E(z),DRSC11147,9.82e5,9.28e5,1.56e6,2.35e6,inactive
E(z),DRSC29388,3.55e5,4.21e5,1.12e6,1.12e6,inactive
cpo,DRSC13265,1.85e5,2.50e5,6.23e5,9.85e5,inactive
cpo,DRSC13273,1.51e5,1.54e5,2.65e5,2.50e5,inactive
cpo,DRSC23006,3.38e5,4.09e5,1.19e6,1.59e6,inactive
cpo,DRSC25799,3.45e5,2.66e5,6.62e5,5.32e5,inactive
cpo,DRSC38943,7.05e5,5.81e5,1.44e6,1.16e6,inactive
SP1173,DRSC11277,1.14e6,1.04e6,8.19e5,1.30e6,inactive
CG42496 + Ppcdc,DRSC03886,1.06e5,1.69e5,2.66e5,2.09e5,inactive
CG31287,DRSC13138,1.40e5,1.22e5,2.02e5,2.96e5,inactive
CG5180,DRSC15731,1.89e5,1.67e5,2.55e6,2.74e6,inactive
CG31007,DRSC14029,8.02e5,3.98e5,1.30e6,6.80e5,inactive
CG31007,DRSC28221,3.64e5,5.47e5,1.47e6,2.04e6,inactive
BomS4,DRSC22509,5.36e5,7.97e5,1.47e6,2.44e6,inactive
CG13562,DRSC04200,2.48e5,2.67e5,2.03e6,1.99e6,inactive
CG13562,DRSC28501,3.11e5,4.38e5,5.52e5,1.46e6,inactive
CG40204 (retired record),DRSC37873,1.01e6,8.32e5,1.65e6,1.55e6,inactive
